# Reference: PubChem BioAssay AID977628 (Broad Institute, 2014)
# In all, about 1,900 compounds went through this assay and fewer than 10 were called active. The inconclusive results got no clear call from the source; some entries with a clear call stand among them for comparison.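 How the source made its calls: active means compound lowering the normal-ribosome reporter at least twice as much as the humanized-ribosome reporter, growth loss under a set limit; inconclusive means no clear call, values can overlap the other calls; inactive means the rest.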
# Test: growth of wild-type and h24-humanized E. coli strains – h24 mutant RFP vs wild-type GFP, cherry-pick, dose response (AID 977628)
# Conditions: E. coli WT GFP strain growth, fluorescence, 24 h; at 50 µM (top of the series) unless noted
row,SMILES,"activity change, negative = inhibition"
1,O=C(Cc1cccnc1)N1CC(=O)N2[C@H](C1)[C@@H](c1ccc(C3=CCCCC3)cc1)[C@@H]2CO,inconclusive: -0.313
2,C/C=C/c1ccc2c(c1)[C@@H]1[C@@H](CCN1S(=O)(=O)c1ccccc1OC)[C@H](CO)N2C,inconclusive: -33.4
3,O=C(Nc1ccccc1)N1CCCCN2[C@@H](CO)[C@H](c3ccc(Br)cc3)[C@@H]2C1,inconclusive: -21.3
4,COc1cccc(NC(=O)C(c2ccccc2)N2CCN(c3ccccn3)CC2)c1 (stereo unspecified),inactive: -13.8
5,[O-][n+]1ccccc1/C=C/c1ccccc1,inconclusive: -16.2
6,O=[N+]([O-])c1ccc2c(c1)S(=O)c1ccccc1-2 (stereo unspecified),inactive: -14.4
7,O=S(=O)(Cc1ccccc1)N1CCCCN2[C@@H](CO)[C@H](c3ccc(C#Cc4ccccc4)cc3)[C@@H]2C1,inconclusive: 5.17
8,CC(C)(C)C1CCC(OC(=O)C[N+]2(C)CCCCC2)CC1 (stereo unspecified),inactive: -5.8
9,O=C(NCCc1ccccn1)c1cccc(S(=O)(=O)N2CCc3ccccc32)c1,inconclusive: -24.6
10,C[C@@H]1CN([C@H](C)CO)C(=O)CCCn2nncc2CO[C@@H]1CN(C)C(=O)Nc1ccc(C(F)(F)F)cc1,inconclusive: -45.4
11,COc1ccccc1CC(=O)NCCCc1ccccc1,inconclusive: -9.33
12,COc1ccc(C2=NN(C(=O)c3cccnc3)C(c3ccccc3)C2)cc1 (stereo unspecified),inactive: -5.27
13,COc1ccc(NC(=O)c2ccc(-c3ccc([N+](=O)[O-])cc3)o2)cc1,inconclusive: -29.6
14,C[C@H]1CCCCO[C@H](CN(C)C)[C@@H](C)CN([C@@H](C)CO)C(=O)c2cc(NC(=O)Nc3cccc4ccccc34)ccc2O1,inconclusive: 10.5
15,O=C(Nc1ccccc1F)N1CCCCN2[C@@H](CO)[C@H](c3ccc(C#Cc4cccnc4)cc3)[C@@H]2C1,inconclusive: -6.35
16,CCN(CC)CCCN(C(=O)c1ccco1)c1nc(-c2ccc(C)cc2)cs1,inconclusive: -20.3
17,CC(CCc1ccccc1)NC(=O)CCC1CCCC1 (stereo unspecified),inactive: -5.65
18,Cc1cc(C)nc(SCCC(=O)Nc2ccccc2Cl)n1,inactive: -14.5
19,CCCC#C/C(CCC)=C1\c2ccccc2C(=O)N1c1ccccc1,inconclusive: -13
20,CCOc1ccccc1N1CC(C(=O)Nc2cccc(S(=O)(=O)N3CCCCC3)c2)CC1=O (stereo unspecified),inconclusive: -20.8
21,Cc1ccc(-c2ccc3c(c2)O[C@@H](CN(C)Cc2cccc(C(=O)O)c2)[C@H](C)CN([C@@H](C)CO)S3(=O)=O)cc1,inconclusive: -36.2

# From no. 12 as far as 13, copied from above:
row,SMILES,"activity change, negative = inhibition"
12,COc1ccc(C2=NN(C(=O)c3cccnc3)C(c3ccccc3)C2)cc1 (stereo unspecified),inactive: -5.27
13,COc1ccc(NC(=O)c2ccc(-c3ccc([N+](=O)[O-])cc3)o2)cc1,inconclusive: -29.6
